Measurements: patent US7498300B2 (The Salk Institute for Biological Studies, priority 2001, dated 2009)

Test: general procedure: Boc solid-phase peptide synthesis; MBHA resin (about 0.28 mequiv/g); BOP (cyclization)
Details: whole synthesis, capillary zone electrophoresis (CZE), scale of the general procedure about 3 grams of resin

Substance: (cyclo 31-34)[Ac-Pro^4, D-Phe^12, Nle^21,38, Glu^31, Lys^34]-r/hCRF(4-41)
- final purity (method not given): about 98%
